From paper PMC6436534 (Chemistry (Weinheim an der Bergstrasse, Germany), 2019)
Converted amounts (≈) assume the structure as drawn.

Legend:
[1] = system: melanoma (MM96L) cell line; assay: Activity against melanoma cell line; assay type: cell-based
[2] = system: breast cancer (MCF7) cell line; assay: Activity against breast cancer cell line; assay type: cell-based

SMILES: O=C(CCCCCCC(=O)Nc1ccccc1)NO [compound 11, suberanilohydroxamic acid, reference compound]
- IC50 [1]: 0.026 ± 0.005 µg/mL (≈ 0.0984 µM)
- IC50 [2]: 0.017 ± 0.001 µg/mL (≈ 0.0643 µM)
